Patent publication US20240352429A1, “AGENT FOR INDUCING VIRAL VECTOR PRODUCTION” (priority 2021, published 2024)

Tested on: suspension HEK293 cells (FreeStyle 293F cell)
Assay type: cell-based
Conditions: added 4 hours after introduction of the nucleic acid, DMSO as solubilizer, nocodazole 500 nM, benzimidazoles 50 μM, 5 μM, vinblastine sulfate, colcemid, taxanes 5 μM, 100 nM, FIG. 3 to 7

SMILES: CN[C@H]1CCc2cc(OC)c(OC)c(OC)c2-c2ccc(OC)c(=O)cc21 [colcemid]
- titer of adeno-associated virus vector in the cell-derived sample, various cell growth inhibitors A: improved
